Results are given in words; binding and its absence hold for the method and conditions named.

The chains behind the UniProt entries cited, without tags or fusion partners. Where a name states a change or a piece, a line headed by the entry shows the natural chain unless it says otherwise.
UniProt Q02630: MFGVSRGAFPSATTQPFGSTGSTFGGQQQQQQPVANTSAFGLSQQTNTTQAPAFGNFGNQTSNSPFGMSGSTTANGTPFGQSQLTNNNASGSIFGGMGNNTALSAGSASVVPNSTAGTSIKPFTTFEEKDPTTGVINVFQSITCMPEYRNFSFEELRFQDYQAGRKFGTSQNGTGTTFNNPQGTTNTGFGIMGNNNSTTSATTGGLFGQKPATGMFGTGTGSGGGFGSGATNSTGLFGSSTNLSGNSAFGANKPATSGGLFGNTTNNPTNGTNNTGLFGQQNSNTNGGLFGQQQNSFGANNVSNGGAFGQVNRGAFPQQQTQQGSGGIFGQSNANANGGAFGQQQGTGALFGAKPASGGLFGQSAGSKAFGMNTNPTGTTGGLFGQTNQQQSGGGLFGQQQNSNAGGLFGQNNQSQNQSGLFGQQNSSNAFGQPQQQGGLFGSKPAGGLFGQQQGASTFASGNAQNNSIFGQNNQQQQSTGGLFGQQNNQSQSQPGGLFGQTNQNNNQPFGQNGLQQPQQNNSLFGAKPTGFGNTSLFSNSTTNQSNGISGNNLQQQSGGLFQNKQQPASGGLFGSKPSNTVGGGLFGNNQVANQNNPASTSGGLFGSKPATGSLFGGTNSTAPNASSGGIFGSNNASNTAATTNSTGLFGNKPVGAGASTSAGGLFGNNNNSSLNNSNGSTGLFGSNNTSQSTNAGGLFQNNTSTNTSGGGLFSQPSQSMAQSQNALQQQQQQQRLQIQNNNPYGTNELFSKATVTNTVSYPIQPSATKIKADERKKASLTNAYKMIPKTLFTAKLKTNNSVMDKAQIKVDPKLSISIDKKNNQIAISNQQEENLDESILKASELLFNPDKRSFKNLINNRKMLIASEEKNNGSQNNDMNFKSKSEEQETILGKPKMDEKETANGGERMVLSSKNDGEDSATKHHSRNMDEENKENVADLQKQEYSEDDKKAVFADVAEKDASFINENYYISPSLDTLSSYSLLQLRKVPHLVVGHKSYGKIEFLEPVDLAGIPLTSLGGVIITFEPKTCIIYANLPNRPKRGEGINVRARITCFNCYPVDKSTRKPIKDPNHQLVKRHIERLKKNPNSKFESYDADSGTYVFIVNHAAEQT

Experimental findings from PMC7051184, “C9orf72 arginine-rich dipeptide repeat proteins disrupt karyopherin-mediated nuclear import” (eLife, 2020) are described below.

The assay deals with GST-Nup116(348-458) F > A, mutant GLFG domain of yeast Nup116 (S. cerevisiae) (UniProt Q02630). The assay can be described thus: bead halo assay; GST-fused yeast FG- and GLFG-domains on glutathione polystyrene beads; AF488-DPRs in binding buffer; rim vs. background ratio, Nup116 F→A beads define the non-specific level; both purified.

B1: AF488-labeled GR10 (peptide)
peptide: GRGRGRGRGRGRGRGRGRGRKC
modifications: Alexa Fluor 488 C5-maleimide on the C-terminal cysteine
On to B1, for which the binding result is “no binding”.

B2: AF488-labeled PR10 (peptide)
peptide: PRPRPRPRPRPRPRPRPRPRKC
modifications: Alexa Fluor 488 C5-maleimide on the C-terminal cysteine
Consider B2, for which the binding result is reported as “no binding”.
